According to the supplement of paper PMC10689618:
Where a name gives a salt, the structure may show the parent alone. This is one part of the list. Repeats are few or missing, and single values can be far off.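 Primary human fetal astrocytes engulfed labelled rat cortical synaptosomes, measured as a red/green ratio corrected for calcein live-cell signal and scaled to the plate median. Toxicity meant calcein falling over 30%; decreased phagocytosis meant below 70% of median above 5 µM.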

tested on: Human fetal astrocytes; test: synaptosome phagocytosis (pHrodo/calcein intensity ratio) relative to plate median of data wells; higher = more phagocytosis; details: 1.39 µM; 24 h

| SMILES | synaptosome phagocytosis |
| --- | --- |
| CC(C)C[C@@H]1NC(=O)[C@H](CCCN)NC(=O)[C@H](C(C)C)NC(=O)[C@H](Cc2ccc(O)cc2)N[C@@H](CCC(=O)O)C(=O)N[C@@H](CC(N)=O)C(=O)[C@@H](Cc2ccccc2)NC(=O)[C@H](Cc2ccccc2)NC(=O)[C@@H]2CCCN2C(=O)[C@@H](Cc2ccccc2)NC1=O | 50.3% |
| C[N+](C)(C)CC(O)CC(=O)[O-] (stereo not given) | 76.3% |
| CC(=O)OCC(=O)[C@@]1(O)CC[C@H]2[C@@H]3CCC4=CC(=O)CC[C@]4(C)[C@H]3[C@@H](O)C[C@@]21C | 115% |
| CCCN(CCC)S(=O)(=O)c1ccc(C(=O)O)cc1 | 110% |
| CC(N)C12CC3CC(CC(C3)C1)C2 (stereo not given) | 107% |
| CON | 128% |
| Cn1c2ncnc-2c(O)n(C)c1=O | 73.9% |
| CC(COc1ccccc1)NC(C)C(O)c1ccc(O)cc1 (stereo not given) | 99.5% |
| CN(C)CCCO[C@@H]1[C@H]2OC(C)(C)O[C@H]2O[C@@H]1[C@H](O)CO | 121% |
| CS(=O)(=O)c1ccc([C@@H](O)[C@@H](CO)NC(=O)C(Cl)Cl)cc1 | 90.9% |
| C/C=N/N(C)C=O | 97.8% |
| C1CNCCN1 | 98.9% |
| NNC(=O)c1ccncc1.Nc1ccc(C(=O)O)c(O)c1 | 132% |
| CC(C)NCC(O)c1cc(O)cc(O)c1 (stereo not given) | 88.9% |
| O=C(/C=C/c1ccccc1)c1ccc(O[C@@H]2O[C@H](CO)[C@@H](O)[C@H](O)[C@H]2O)cc1O | 126% |
| CCN(CC)CCCC(C)Nc1c2ccc(Cl)cc2nc2ccc(OC)cc12 (stereo not given) [Quinacrine dihydrochloride] | 76% |
| CCN1CCCC1CNC(=O)c1cc(S(N)(=O)=O)ccc1OC (stereo not given) | 81% |
| O=C(OOC(=O)c1ccccc1)c1ccccc1 | 88.5% |
| Cn1c(=O)c2nc(C3CCCC3)[nH]c2n(C)c1=O | 110% |
| CCN1CCCC(OC(=O)C(c2ccccc2)c2ccccc2)C1 (stereo not given) | 120% |

| SMILES | synaptosome phagocytosis |
| --- | --- |
| COC(=O)C[C@H]1C(C)(C)[C@@H](O)[C@@H]2CC3=C4C=C(OC)O[C@@H](c5ccoc5)[C@]4(C)CCC3[C@@]1(C)C2=O (stereo partly drawn) [3-DEOXO-3beta-HYDROXYMEXICANOLIDE 16-ENOL ETHER] | 103% |
| CC1(C)CC[C@]2(C(=O)O)CC[C@]3(C)C(=CC[C@@H]4[C@@]5(C)CC[C@H](O)C(C)(C)[C@@H]5CC[C@]43C)[C@@H]2C1 | 73.7% |
| Cc1onc(-c2ccccc2Cl)c1C(=O)N[C@@H]1C(=O)N2[C@@H]1SC(C)(C)[C@@H]2C(=O)O | 104% |
| O=C(O[C@H]1CN2CCC1CC2)N1CCc2ccccc2[C@@H]1c1ccccc1 | 79.8% |
| CC[C@H]1C(=O)OC[C@@H]1Cc1cncn1C | 124% |
| CC1=C2C(=CO[C@H](C)[C@H]2C)C(=O)C(C(=O)O)=C1O | 100% |
| COc1cc(OC)c2c(=O)c(OC)c(-c3ccc(OC)c(OC)c3)oc2c1 | 112% |
| CCCCCCCCCc1ccc(OCCOCCOCCOCCOCCOCCOCCOCCOCCO)cc1 | 133% |
| CC(=O)OC(C)(C)[C@@H]1Cc2cc3ccc(=O)oc3cc2O1 | 94.2% |
| C[C@@H]1CC[C@H]2C(C)(C)[C@H]3C[C@@]12CC[C@@]3(C)O | 106% |
| CCN(CC)CCOCCOC(=O)C(CC)(CC)c1ccccc1 | 108% |
| CN(C)c1ccc2nc3ccc(=[N+](C)C)cc-3sc2c1 | 144% |
| O=C1C(=O)c2ccccc2C(O)=C1C1CCC(c2ccc(Cl)cc2)CC1 (stereo not given) | 120% |
| NC(Cc1ccc(F)cc1)C(=O)O (stereo not given) | 75% |
| O=c1oc2c(O)c(O)cc3c(=O)oc4c(O)c(O)cc1c4c23 | 115% |
| CCOC(=O)CCC(=O)O[C@H]1[C@H](O[C@@H]2[C@@H](C)[C@H](O[C@H]3C[C@@](C)(OC)[C@@H](O)[C@H](C)O3)[C@@H](C)C(=O)O[C@H](CC)[C@@](C)(O)[C@H](O)[C@@H](C)C(=O)[C@H](C)C[C@@]2(C)O)O[C@H](C)C[C@@H]1N(C)C | 92.9% |
| C=CC(N)CCC(=O)O (racemic) [(±)-gamma-Vinyl GABA] | 141% |
| Nc1nc(=O)c2[nH]c(=O)cnc2[nH]1 | 131% |
| O=C(O)CCNC(=O)c1ccccc1 | 106% |
| C=C1c2c(Cl)ccc(O)c2C(O)=C2C(=O)[C@]3(O)C(O)=C(C(N)=O)C(=O)[C@@H](N(C)C)[C@@H]3[C@@H](O)[C@H]12.O=C(O)c1cc(S(=O)(=O)O)ccc1O | 120% |

same assay, conditions: 2.78 µM; 24 h

| SMILES | synaptosome phagocytosis |
| --- | --- |
| CC(C)C[C@@H]1NC(=O)[C@H](CCCN)NC(=O)[C@H](C(C)C)NC(=O)[C@H](Cc2ccc(O)cc2)N[C@@H](CCC(=O)O)C(=O)N[C@@H](CC(N)=O)C(=O)[C@@H](Cc2ccccc2)NC(=O)[C@H](Cc2ccccc2)NC(=O)[C@@H]2CCCN2C(=O)[C@@H](Cc2ccccc2)NC1=O | 45.3% |
| C[N+](C)(C)CC(O)CC(=O)[O-] (stereo not given) | 91.1% |
| CC(=O)OCC(=O)[C@@]1(O)CC[C@H]2[C@@H]3CCC4=CC(=O)CC[C@]4(C)[C@H]3[C@@H](O)C[C@@]21C | 119% |
| CCCN(CCC)S(=O)(=O)c1ccc(C(=O)O)cc1 | 95.9% |
| CC(N)C12CC3CC(CC(C3)C1)C2 (stereo not given) | 74.5% |
| CON | 116% |
| Cn1c2ncnc-2c(O)n(C)c1=O | 116% |
| CC(COc1ccccc1)NC(C)C(O)c1ccc(O)cc1 (stereo not given) | 99.8% |
| CN(C)CCCO[C@@H]1[C@H]2OC(C)(C)O[C@H]2O[C@@H]1[C@H](O)CO | 92.2% |
| CS(=O)(=O)c1ccc([C@@H](O)[C@@H](CO)NC(=O)C(Cl)Cl)cc1 | 149% |
| C/C=N/N(C)C=O | 119% |
| C1CNCCN1 | 87.8% |
| NNC(=O)c1ccncc1.Nc1ccc(C(=O)O)c(O)c1 | 103% |
| CC(C)NCC(O)c1cc(O)cc(O)c1 (stereo not given) | 115% |
| O=C(/C=C/c1ccccc1)c1ccc(O[C@@H]2O[C@H](CO)[C@@H](O)[C@H](O)[C@H]2O)cc1O | 127% |
| CCN(CC)CCCC(C)Nc1c2ccc(Cl)cc2nc2ccc(OC)cc12 (stereo not given) [Quinacrine dihydrochloride] | 79.7% |
| CCN1CCCC1CNC(=O)c1cc(S(N)(=O)=O)ccc1OC (stereo not given) | 113% |
| O=C(OOC(=O)c1ccccc1)c1ccccc1 | 109% |
| Cn1c(=O)c2nc(C3CCCC3)[nH]c2n(C)c1=O | 130% |
| CCN1CCCC(OC(=O)C(c2ccccc2)c2ccccc2)C1 (stereo not given) | 115% |

| SMILES | synaptosome phagocytosis |
| --- | --- |
| COC(=O)C[C@H]1C(C)(C)[C@@H](O)[C@@H]2CC3=C4C=C(OC)O[C@@H](c5ccoc5)[C@]4(C)CCC3[C@@]1(C)C2=O (stereo partly drawn) [3-DEOXO-3beta-HYDROXYMEXICANOLIDE 16-ENOL ETHER] | 124% |
| CC1(C)CC[C@]2(C(=O)O)CC[C@]3(C)C(=CC[C@@H]4[C@@]5(C)CC[C@H](O)C(C)(C)[C@@H]5CC[C@]43C)[C@@H]2C1 | 49.8% |
| Cc1onc(-c2ccccc2Cl)c1C(=O)N[C@@H]1C(=O)N2[C@@H]1SC(C)(C)[C@@H]2C(=O)O | 85.3% |
| O=C(O[C@H]1CN2CCC1CC2)N1CCc2ccccc2[C@@H]1c1ccccc1 | 106% |
| CC[C@H]1C(=O)OC[C@@H]1Cc1cncn1C | 95.3% |
| CC1=C2C(=CO[C@H](C)[C@H]2C)C(=O)C(C(=O)O)=C1O | 100% |
| COc1cc(OC)c2c(=O)c(OC)c(-c3ccc(OC)c(OC)c3)oc2c1 | 133% |
| CCCCCCCCCc1ccc(OCCOCCOCCOCCOCCOCCOCCOCCOCCO)cc1 | 70.9% |
| CC(=O)OC(C)(C)[C@@H]1Cc2cc3ccc(=O)oc3cc2O1 | 81.2% |
| C[C@@H]1CC[C@H]2C(C)(C)[C@H]3C[C@@]12CC[C@@]3(C)O | 138% |
| CCN(CC)CCOCCOC(=O)C(CC)(CC)c1ccccc1 | 98.5% |
| CN(C)c1ccc2nc3ccc(=[N+](C)C)cc-3sc2c1 | 83.8% |
| O=C1C(=O)c2ccccc2C(O)=C1C1CCC(c2ccc(Cl)cc2)CC1 (stereo not given) | 95.8% |
| NC(Cc1ccc(F)cc1)C(=O)O (stereo not given) | 106% |
| O=c1oc2c(O)c(O)cc3c(=O)oc4c(O)c(O)cc1c4c23 | 131% |
| CCOC(=O)CCC(=O)O[C@H]1[C@H](O[C@@H]2[C@@H](C)[C@H](O[C@H]3C[C@@](C)(OC)[C@@H](O)[C@H](C)O3)[C@@H](C)C(=O)O[C@H](CC)[C@@](C)(O)[C@H](O)[C@@H](C)C(=O)[C@H](C)C[C@@]2(C)O)O[C@H](C)C[C@@H]1N(C)C | 93.3% |
| C=CC(N)CCC(=O)O (racemic) [(±)-gamma-Vinyl GABA] | 92.9% |
| Nc1nc(=O)c2[nH]c(=O)cnc2[nH]1 | 116% |
| O=C(O)CCNC(=O)c1ccccc1 | 139% |
| C=C1c2c(Cl)ccc(O)c2C(O)=C2C(=O)[C@]3(O)C(O)=C(C(N)=O)C(=O)[C@@H](N(C)C)[C@@H]3[C@@H](O)[C@H]12.O=C(O)c1cc(S(=O)(=O)O)ccc1O | 105% |
